Reference: publication PMC6279836, “The LPG1x family from Leishmania major is constituted of rare eukaryotic galactofuranosyltransferases with unprecedented catalytic properties” (Scientific Reports, 2018)

Amino acid sequences for entries named in this document (tags omitted).
UniProt P0A6F5: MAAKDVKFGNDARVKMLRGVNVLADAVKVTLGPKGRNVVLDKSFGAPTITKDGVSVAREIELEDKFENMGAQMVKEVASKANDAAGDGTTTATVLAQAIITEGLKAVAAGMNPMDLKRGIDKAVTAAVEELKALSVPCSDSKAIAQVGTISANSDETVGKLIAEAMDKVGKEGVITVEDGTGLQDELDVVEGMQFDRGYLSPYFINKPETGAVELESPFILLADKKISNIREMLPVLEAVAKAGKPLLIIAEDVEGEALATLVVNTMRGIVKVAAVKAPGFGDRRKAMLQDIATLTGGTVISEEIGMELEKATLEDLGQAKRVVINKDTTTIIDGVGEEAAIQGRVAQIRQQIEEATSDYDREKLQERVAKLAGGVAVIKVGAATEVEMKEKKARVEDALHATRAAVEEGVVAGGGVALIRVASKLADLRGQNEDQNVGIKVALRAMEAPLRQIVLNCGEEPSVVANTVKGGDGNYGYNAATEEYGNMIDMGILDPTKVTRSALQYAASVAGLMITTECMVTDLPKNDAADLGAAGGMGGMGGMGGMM

Target: T1, His-tagged recombinant LPG1 without the transmembrane domain (Leishmania major) (UniProt Q9NC61)
T1 sequence: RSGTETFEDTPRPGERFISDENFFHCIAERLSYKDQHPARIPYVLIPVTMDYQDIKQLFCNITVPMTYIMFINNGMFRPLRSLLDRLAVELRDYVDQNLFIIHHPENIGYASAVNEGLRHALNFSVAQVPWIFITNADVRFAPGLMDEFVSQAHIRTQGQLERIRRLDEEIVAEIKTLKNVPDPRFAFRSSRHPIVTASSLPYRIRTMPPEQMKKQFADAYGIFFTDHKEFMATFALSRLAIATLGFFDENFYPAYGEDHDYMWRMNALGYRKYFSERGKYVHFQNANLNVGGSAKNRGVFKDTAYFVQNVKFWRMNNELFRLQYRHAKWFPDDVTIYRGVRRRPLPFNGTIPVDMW
Assay: affinity purification with mass spectrometry; His-tagged LPG1x proteins over-expressed from pET vectors in various E. coli strains and purified; GroEL stayed with them and was identified by HRMS; literature protocols to remove it failed

GroEL chaperonin (from UniProt P0A6F5 1-548)
binding: binds

No constants are given. Whether binding was seen depends on the method and setting. In cells and extracts the contact can be indirect. Here binding means that the protein was enriched with, or labelled near, the bait; the list need not be complete. Sequences can lack the tags named with a protein.
